This assay has as its system B6C3F1 mice, ip Sarcoma M5076, median survival T/C. The assay is described as follows: NCI In Vivo Anticancer Drug Screen. Data for tumor model Sarcoma M5076 (intraperitoneal) in B6C3F1 mice. The following applies: T/C endpoint: median survival time, higher T/C = longer survival. Summed up: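 Transplantable tumour in mice; compound-treated vs vehicle-treated groups. Read-out: survival. Value = treated/control ratio.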

Where [1] appears, read: dose: 400.0 mg/kg/injection, schedule: Q04DX004 (ip), vehicle: saline with Tween-80.
Where [2] appears, read: dose: 100.0 mg/kg/injection, schedule: Q04DX004 (ip), vehicle: water.
The mark [3] stands for this setting: dose: 400.0 mg/kg/injection, schedule: Q04DX004 (ip), vehicle: Klucel (hydroxypropylcellulose) (HPC).
The mark [4] stands for this setting: dose: 800.0 mg/kg/injection, schedule: Q04DX004 (ip), vehicle: Klucel (hydroxypropylcellulose) (HPC).
Where [5] appears, read: dose: 12.0 mg/kg/injection, schedule: Q04DX004 (ip), vehicle: water.
The mark [6] stands for this setting: dose: 24.0 mg/kg/injection, schedule: Q04DX004 (ip), vehicle: water.
Setting [7] is: dose: 25.0 mg/kg/injection, schedule: Q04DX004 (ip), vehicle: water.
[8] abbreviates: dose: 50.0 mg/kg/injection, schedule: Q04DX004 (ip), vehicle: water.
The mark [9] stands for this setting: dose: 666.67 mg/kg/injection, schedule: Q04DX004 (ip), vehicle: saline with Tween-80.

The list is a part of this screen's results and no random one: it is rich in T/C values a quarter to a half above the control, in often repeated tests (any T/C) and in doses without a T/C. Further doses and runs are listed elsewhere. T/C is the treated group as % of the vehicle group. Some doses have a count of surviving animals in place of a T/C: the source files T/C as zero there, which appears to mark a toxic dose or a test without result, not a measured value. Some doses without a T/C left all or most animals alive at the check, yet need not have been tolerated: survival well below the control is almost never listed, so the zero probably covers shortened survival too. Counts of survivors are from the toxicity check (mostly the fifth day) where no day follows; animals may have died later. Schedules are NCI's codes, taken here to give the interval after Q, in days (D) or hours (H), and the number of doses after X. Some structures stand for samples that the source files as different forms (salt, stereo form or complex); doses refer to the form tested. Where survival is the endpoint, the PubChem record calls one and a half times the control and up active, and a quarter to a half above the control has no call in these data; cut-offs in other NCI protocols can differ. Some T/C values carry the count of animals alive at the toxicity check (mostly the fifth day); without a count, all were alive then. Some entries were tested several times; the results are listed from low to high.

On to `Cc1nc2cc[nH]n2c(=O)c1CCc1ccccc1`, for which the survivor count runs as follows: under setting [1], 10 of 10 on day 14; (dose: 800.0 mg/kg/injection, schedule: Q04DX004 (ip), vehicle: saline with Tween-80) 10 of 10 on day 14.

Take `O=C1C2C3C=CC(C2C(=O)N1CO)C1C2C(=O)N(CO)C(=O)C2C31` (centres undefined): the survivor count by setting is: under setting [2], 5 of 10 on day 14; (dose: 200.0 mg/kg/injection, schedule: Q04DX004 (ip), vehicle: water) 1 of 10 on day 14.

`O=C1c2c(O)ccc(O)c2C(=O)c2c(NCCNCCO)ccc(NCCNCCO)c21`: the survivor count is given as 10 of 10 on day 14 (dose: 4.0 mg/kg/injection, schedule: Q04DX004 (ip), vehicle: water); 8 of 8 on day 17 (dose: 4.0 mg/kg/injection, schedule: Q04DX005 (ip), vehicle: saline); 1 of 10 on day 14 (dose: 8.0 mg/kg/injection, schedule: Q04DX004 (ip), vehicle: water).

As to `O=C1C=CC2OC(c3ccccc3)C(O)C2O1` (centres undefined), the survivor count (dose: 100.0 mg/kg/injection, schedule: Q04DX004 (ip), vehicle: DMSO) is recorded as 0 of 10 on day 14.

Take `CN(C)CCCN=c1c2ccccc2n(C)c2[nH]c(=O)n(C)c(=O)c12`: the survivor count is recorded as 2 of 10 on day 14 (dose: 60.0 mg/kg/injection, schedule: Q04DX004 (ip), vehicle: saline) and 0 of 10 on day 14 (dose: 120.0 mg/kg/injection, schedule: Q04DX004 (ip), vehicle: saline).

As for `[CH3][Sn]([CH3])([Cl])[c]1cc[c]([Sn]([CH3])([CH3])[Cl])cc1`, the survivor count was 3 of 9 on day 14 (dose: 5.76 mg/kg/injection, schedule: Q04DX004 (ip), vehicle: saline); 0 of 10 on day 14 (dose: 9.6 mg/kg/injection, schedule: Q04DX004 (ip), vehicle: saline); 0 of 10 on day 14 (dose: 16.0 mg/kg/injection, schedule: Q04DX004 (ip), vehicle: saline); 0 of 10 on day 14 (dose: 26.67 mg/kg/injection, schedule: Q04DX004 (ip), vehicle: saline); 0 of 10 on day 14 (dose: 44.45 mg/kg/injection, schedule: Q04DX004 (ip), vehicle: saline).

Take `NC1=NCc2c(sc3c2CCCC3)N1`: the survivor count (dose: 200.0 mg/kg/injection, schedule: Q04DX004 (ip), vehicle: Klucel (hydroxypropylcellulose) (HPC)) was 0 of 10 on day 14.

`O=C(Nc1cccc(NC(=O)c2nn[nH]n2)n1)c1nn[nH]n1`: the survivor count is reported as 8 of 10 on day 14 under setting [3] and 4 of 10 on day 14 under setting [4].

Regarding `C/C=C\C1OC1(C)c1cc(=O)c2c(C)cc3c(c2o1)C(=O)c1c(O)c(C2CC(C)(N(C)C)C(OC(C)=O)C(C)O2)cc(C2CC(N(C)C)C(O)C(C)O2)c1C3=O` (centres undefined), the T/C (dose: 1.5 mg/kg/injection, schedule: Q04DX004 (ip), vehicle: saline + alcohol) is 143 % of control.

As to `O=CC(NC(=O)N(CCCl)N=O)C(O)C(O)C(O)CO` (centres undefined), for the setting “dose: 20.0 mg/kg/injection, schedule: Q04DX005 (ip), vehicle: saline”, the survivor count was 8 of 8 on day 17.

Turning to `COC(=O)c1ccc(N=NN(C)COC(C)=O)cc1`, the T/C by setting is: (dose: 120.0 mg/kg/injection, schedule: Q04DX004 (ip), vehicle: Klucel (hydroxypropylcellulose) (HPC)) 146 % of control; (dose: 240.0 mg/kg/injection, schedule: Q04DX004 (ip), vehicle: Klucel (hydroxypropylcellulose) (HPC)) 148 % of control [8 of 10 alive on day 14]. For the same molecule, the survivor count (dose: 480.0 mg/kg/injection, schedule: Q04DX004 (ip), vehicle: Klucel (hydroxypropylcellulose) (HPC)) is given as 4 of 10 on day 14 and the survivor count under setting [4] is reported as 0 of 10 on day 14.

As to `Nc1nc2c(ncn2C2CC3[O][Sn]([c]4ccccc4)([c]4ccccc4)[O]CC3O2)c(=O)[nH]1` (centres undefined), the survivor count (dose: 400.0 mg/kg/injection, schedule: Q04DX004 (ip), vehicle: distilled water + Tween-80) is 2 of 10 on day 14.

For the molecule `CNCCN=c1ccc2c3c1c(O)c1c(O)ccc(=O)c1c3[nH]n2CCNCCO`, the survivor count by setting is: (dose: 6.0 mg/kg/injection, schedule: Q04DX004 (ip), vehicle: water) 8 of 10 on day 14; under setting [5], 1 of 10 on day 14; under setting [6], 0 of 10 on day 14; under setting [7], 0 of 10 on day 14; under setting [8], 0 of 10 on day 14; under setting [2], 0 of 10 on day 14.

For `C=C(C)C1C2CC3(C)C4(CO4)C4OC4C3(O)C1C(=O)O2` (centres undefined), the survivor count is given as 3 of 10 on day 14 (dose: 2.0 mg/kg/injection, schedule: Q04DX004 (ip), vehicle: Klucel (hydroxypropylcellulose) (HPC)) and 0 of 10 on day 14 (dose: 4.0 mg/kg/injection, schedule: Q04DX004 (ip), vehicle: Klucel (hydroxypropylcellulose) (HPC)).

As to `N#CC1C(=O)NC(=S)NC1CCc1ccccc1` (centres undefined), the survivor count is given as 5 of 10 on day 14 under setting [3] and 0 of 10 on day 14 under setting [4].

`COc1cccc(-n2cc[n+](C)c2/C=N/O)c1`: the survivor count (dose: 200.0 mg/kg/injection, schedule: Q04DX004 (ip), vehicle: saline with Tween-80) is given as 0 of 10 on day 14.

With `O=C(c1ncccc1O)N1CCCCC1`, the survivor count (dose: 162.5 mg/kg/injection, schedule: Q04DX004 (ip), vehicle: distilled water + Tween-80) is listed as 10 of 10 on day 14.

Take `COC1=C(C)C(=O)C2=C(C1=O)C(CO)N1C(C#N)C3CC4C(C1C2N1CCOC41)N3C` (centres undefined): the survivor count runs as follows: (dose: 4.0 mg/kg/injection, schedule: Q04DX004 (ip), vehicle: acid diluted with saline) 4 of 10 on day 14; (dose: 8.0 mg/kg/injection, schedule: Q04DX004 (ip), vehicle: acid diluted with saline) 0 of 10 on day 14; (dose: 16.0 mg/kg/injection, schedule: Q04DX004 (ip), vehicle: acid diluted with saline) 0 of 10 on day 14.

As to `Cc1cc2c(C(C)C)c(O)c(O)c(C=NCCO)c2c(O)c1-c1c(C)cc2c(C(C)C)c(O)c(O)c(C=NCCO)c2c1O`, the T/C is 131 % of control (dose: 86.4 mg/kg/injection, schedule: Q04DX004 (ip), vehicle: saline with Tween-80); 126 % of control (dose: 240.0 mg/kg/injection, schedule: Q04DX004 (ip), vehicle: saline with Tween-80); 148 % of control under setting [1]; 148 % of control under setting [9]. Also, the survivor count under setting [9] was 3 of 10 on day 14.

Turning to `C/C=C/C=C\C=C/C(O)CC(OP(=O)(O)O)C(C)(O)/C=C/C1CC=CC(=O)O1` (centres undefined), the T/C was 126 % of control (dose: 12.0 mg/kg/injection, schedule: Q04DX004 (ip), vehicle: Klucel (hydroxypropylcellulose) (HPC)); 127 % of control under setting [5]; 131 % of control [9 of 10 alive on day 14] under setting [6]. The survivor count (dose: 48.0 mg/kg/injection, schedule: Q04DX004 (ip), vehicle: water) is given as 6 of 10 on day 14.

Regarding `Nc1n[n+](-c2ccccc2)no1`, the T/C was 126 and 127 % of control [9 of 10 alive on day 14] (dose: 6.25 mg/kg/injection, schedule: Q01DX009 (ip), vehicle: water); 126 % of control (dose: 6.25 mg/kg/injection, schedule: Q04DX004 (ip), vehicle: water); 135 % of control (dose: 12.5 mg/kg/injection, schedule: Q01DX009 (ip), vehicle: water); 126 and 129 % of control (dose: 12.5 mg/kg/injection, schedule: Q04DX004 (ip), vehicle: water); 144 % of control [8 of 10 alive on day 14] (dose: 25.0 mg/kg/injection, schedule: Q01DX009 (ip), vehicle: water); 127, 133, 147 % of control under setting [7]. In addition, under setting [8], the T/C is 137 and 140 % of control [8 of 10 alive on day 14]. For the same molecule, the survivor count is 6 of 10 on day 14 under setting [8]; 0 of 10 on day 14 (dose: 100.0 mg/kg/injection, schedule: Q01DX009 (ip), vehicle: water); 0 of 10 on day 14 under setting [2].

For the origin of these results see PubChem BioAssay AID292 (DTP/NCI, 2004).
